Experimental data taken from paper PMC11969748.
Results are given in words; binding and its absence hold for the method and conditions named. Binding seen in cells or lysates may run through a third protein. Some binding calls cover weakened binding; strength is not graded here. Tags and fused reporters may be left off the sequences shown. Blank lines part the entries; values can stand above or below the molecule they belong to.

Sequences of proteins named here, by UniProt entry; tags and fusion partners are left off.
UniProt O43474: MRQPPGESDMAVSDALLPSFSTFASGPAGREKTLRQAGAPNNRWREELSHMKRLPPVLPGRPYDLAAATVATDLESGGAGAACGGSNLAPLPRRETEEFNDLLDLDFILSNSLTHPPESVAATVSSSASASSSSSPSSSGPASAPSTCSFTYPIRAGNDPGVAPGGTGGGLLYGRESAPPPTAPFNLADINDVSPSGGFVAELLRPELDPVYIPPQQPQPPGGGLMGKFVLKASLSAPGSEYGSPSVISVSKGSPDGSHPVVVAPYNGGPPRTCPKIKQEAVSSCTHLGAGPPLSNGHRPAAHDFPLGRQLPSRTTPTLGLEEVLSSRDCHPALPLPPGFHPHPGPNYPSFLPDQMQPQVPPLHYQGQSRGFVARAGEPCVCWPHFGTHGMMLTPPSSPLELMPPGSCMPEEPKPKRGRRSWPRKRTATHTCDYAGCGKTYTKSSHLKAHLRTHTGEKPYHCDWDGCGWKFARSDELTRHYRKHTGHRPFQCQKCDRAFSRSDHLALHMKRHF

Key:
[1] = target: T1, HA-tagged TRAF7 (TNF Receptor-Associated Factor 7) (UniProt Q6Q0C0); assay: co-IP; Protein A/G magnetic beads loaded with Flag, HA or normal IgG antibodies; binding buffer 50 mM Tris, 150 mM NaCl, 0.1%-0.5% Triton X-100 or Tween 20, pH 7.5; lysate of U251 cells co-expressing Flag-KLF4 and HA-TRAF7 incubated 10 min at room temperature; both orientations
T1 sequence: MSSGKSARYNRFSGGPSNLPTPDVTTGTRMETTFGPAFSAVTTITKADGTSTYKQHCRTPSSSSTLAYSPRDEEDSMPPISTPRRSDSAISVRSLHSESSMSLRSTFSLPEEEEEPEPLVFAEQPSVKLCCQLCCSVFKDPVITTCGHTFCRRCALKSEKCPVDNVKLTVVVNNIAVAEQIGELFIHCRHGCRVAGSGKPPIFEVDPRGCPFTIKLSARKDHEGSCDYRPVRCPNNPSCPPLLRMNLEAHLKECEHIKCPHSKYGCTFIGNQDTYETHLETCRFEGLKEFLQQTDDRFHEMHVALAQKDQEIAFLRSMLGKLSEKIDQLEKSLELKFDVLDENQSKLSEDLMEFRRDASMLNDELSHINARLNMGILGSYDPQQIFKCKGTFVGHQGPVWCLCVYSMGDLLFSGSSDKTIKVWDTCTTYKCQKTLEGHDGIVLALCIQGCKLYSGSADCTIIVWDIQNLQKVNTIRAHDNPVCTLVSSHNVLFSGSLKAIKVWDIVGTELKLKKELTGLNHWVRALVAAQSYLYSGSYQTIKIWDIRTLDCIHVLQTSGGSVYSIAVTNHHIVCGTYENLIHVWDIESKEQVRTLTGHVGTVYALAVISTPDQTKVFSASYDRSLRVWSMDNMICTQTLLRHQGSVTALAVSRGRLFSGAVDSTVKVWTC

[2] = target: Flag-tagged KLF4 (Krüppel-Like Factor 4) (UniProt O43474); assay: as above

binding [1]: binds
Molecule: Flag-tagged KLF4 (Krüppel-Like Factor 4) (from UniProt O43474 1-513)

binding [2]: binds
B1: HA-tagged TRAF7 (TNF Receptor-Associated Factor 7) (protein, UniProt Q6Q0C0 1-670)
chain: T1 sequence
